Test results published in US20110085986A1, “Diagnosis and treatment of epithelial cancers using labeled/conjugated progastrin peptides” (priority 2009, published 2011).
Results are given in words; binding and its absence hold for the method and conditions named. Some binding calls cover weakened binding; strength is not graded here.

By UniProt entry, the sequences of proteins in these tests, tags left out. Residues count along the entry.
UniProt P07355, residues 2-339: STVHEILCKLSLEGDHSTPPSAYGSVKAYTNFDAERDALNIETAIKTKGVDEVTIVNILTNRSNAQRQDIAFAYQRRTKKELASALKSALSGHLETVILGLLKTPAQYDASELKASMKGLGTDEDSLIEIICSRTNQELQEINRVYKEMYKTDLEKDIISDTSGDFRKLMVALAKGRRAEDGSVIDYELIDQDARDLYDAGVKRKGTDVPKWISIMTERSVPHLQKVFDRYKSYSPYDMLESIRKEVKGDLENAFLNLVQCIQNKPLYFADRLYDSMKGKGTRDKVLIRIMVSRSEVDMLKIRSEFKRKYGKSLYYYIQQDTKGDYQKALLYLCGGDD

Biological target: Annexin A2 in HEK-293 cells (UniProt P07355)
Assay: fluorescence microscopy co-localization in cells (FIG. 7)

binding: binds
Binder: QGPWLEEEEEAYGWMDFGRRSAEDEN (FITC at the N-terminal end) [Fluorescein isothiocyanate (FITC) labeled PG26 peptide]
